{"source": "PubChem BioAssay AID720710 (VTT Finland, 2013)", "aim": "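Knock-downs that leave cyclin E-high cells sensitive to replication stress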 (primary screen)", "cells": "human U-2 OS bone cancer cells, parental and a cyclin E (CCNE1) overexpressing line", "knock-down reagent": "single siRNA against human genes, 1 µM siRNA in the printed spot mix", "time to read-out": "67 h", "treatment": "half the arrays: hydroxyurea 2 mM for 16 h, then 3 h recovery; other arrays untreated", "detection": "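DNA synthesis measured as imaged EdU uptake per nucleus (DAPI) at 67 h, normalised to subgrid median and given as z-score versus non-targeting controls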", "scale": "EdU z-score, cyclin E line, hydroxyurea: higher = more DNA synthesis than non-targeting controls", "note": "Here is a random part of about 1,380 deposited reagents. 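One array per condition without replicates; hydroxyurea arrays received 2 mM for 16 h plus 3 h recovery.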 Reagents against one gene are numbered here. Not all columns of the deposit are shown. Reagent sequences are not shown."}
{"gene": "RFC5 (replication factor C subunit 5)", "siRNA no.": 1, "EdU z-score, cyclin E line, hydroxyurea": -0.756}
{"gene": "RFC5 (replication factor C subunit 5)", "siRNA no.": 2, "EdU z-score, cyclin E line, hydroxyurea": 2.57}
{"gene": "TK1 (thymidine kinase 1)", "siRNA no.": 1, "EdU z-score, cyclin E line, hydroxyurea": -1.75}
{"gene": "TK1 (thymidine kinase 1)", "siRNA no.": 2, "EdU z-score, cyclin E line, hydroxyurea": 1.08}
{"gene": "PARP3 (poly(ADP-ribose) polymerase family member 3)", "siRNA no.": 1, "EdU z-score, cyclin E line, hydroxyurea": 0.285}
{"gene": "PARP3 (poly(ADP-ribose) polymerase family member 3)", "siRNA no.": 2, "EdU z-score, cyclin E line, hydroxyurea": 0.987}
{"gene": "TAF6L (TATA-box binding protein associated factor 6 like)", "siRNA no.": 1, "EdU z-score, cyclin E line, hydroxyurea": -1.11}
{"gene": "TAF6L (TATA-box binding protein associated factor 6 like)", "siRNA no.": 2, "EdU z-score, cyclin E line, hydroxyurea": 0.0399}
{"gene": "KMT5B (lysine methyltransferase 5B)", "siRNA no.": 1, "EdU z-score, cyclin E line, hydroxyurea": -0.597}
{"gene": "KMT5B (lysine methyltransferase 5B)", "siRNA no.": 2, "EdU z-score, cyclin E line, hydroxyurea": -0.0202}
{"gene": "ZNF408 (zinc finger protein 408)", "siRNA no.": 1, "EdU z-score, cyclin E line, hydroxyurea": -0.304}
{"gene": "ZNF408 (zinc finger protein 408)", "siRNA no.": 2, "EdU z-score, cyclin E line, hydroxyurea": 2.71}
{"gene": "TRIM2 (tripartite motif containing 2)", "siRNA no.": 1, "EdU z-score, cyclin E line, hydroxyurea": -1.89}
{"gene": "TRIM2 (tripartite motif containing 2)", "siRNA no.": 2, "EdU z-score, cyclin E line, hydroxyurea": -0.0442}
{"gene": "MLH1 (mutL homolog 1)", "siRNA no.": 1, "EdU z-score, cyclin E line, hydroxyurea": -1.11}
{"gene": "MLH1 (mutL homolog 1)", "siRNA no.": 2, "EdU z-score, cyclin E line, hydroxyurea": -0.817}
{"gene": "FANCM (FA complementation group M)", "siRNA no.": 1, "EdU z-score, cyclin E line, hydroxyurea": -1.71}
{"gene": "FANCM (FA complementation group M)", "siRNA no.": 2, "EdU z-score, cyclin E line, hydroxyurea": -0.788}

The list goes on, starting with the last 3 of the part before.
{"gene": "MLH1 (mutL homolog 1)", "siRNA no.": 2, "EdU z-score, cyclin E line, hydroxyurea": -0.817}
{"gene": "FANCM (FA complementation group M)", "siRNA no.": 1, "EdU z-score, cyclin E line, hydroxyurea": -1.71}
{"gene": "FANCM (FA complementation group M)", "siRNA no.": 2, "EdU z-score, cyclin E line, hydroxyurea": -0.788}
{"gene": "PARP6 (poly(ADP-ribose) polymerase family member 6)", "siRNA no.": 1, "EdU z-score, cyclin E line, hydroxyurea": -1.57}
{"gene": "PARP6 (poly(ADP-ribose) polymerase family member 6)", "siRNA no.": 2, "EdU z-score, cyclin E line, hydroxyurea": -1.37}
{"gene": "FOXO3 (forkhead box O3)", "siRNA no.": 1, "EdU z-score, cyclin E line, hydroxyurea": 0.87}
{"gene": "FOXO3 (forkhead box O3)", "siRNA no.": 2, "EdU z-score, cyclin E line, hydroxyurea": 0.898}
{"gene": "RSF1 (remodeling and spacing factor 1)", "siRNA no.": 1, "EdU z-score, cyclin E line, hydroxyurea": -3.42}
{"gene": "RSF1 (remodeling and spacing factor 1)", "siRNA no.": 2, "EdU z-score, cyclin E line, hydroxyurea": -2.36}
{"gene": "FAAP24 (FA core complex associated protein 24)", "siRNA no.": 1, "EdU z-score, cyclin E line, hydroxyurea": 0.417}
{"gene": "FAAP24 (FA core complex associated protein 24)", "siRNA no.": 2, "EdU z-score, cyclin E line, hydroxyurea": 1.7}
{"gene": "LIG4 (DNA ligase 4)", "siRNA no.": 1, "EdU z-score, cyclin E line, hydroxyurea": -0.502}
{"gene": "LIG4 (DNA ligase 4)", "siRNA no.": 2, "EdU z-score, cyclin E line, hydroxyurea": 0.468}
{"gene": "CHD3 (chromodomain helicase DNA binding protein 3)", "siRNA no.": 1, "EdU z-score, cyclin E line, hydroxyurea": 1.55}
{"gene": "CHD3 (chromodomain helicase DNA binding protein 3)", "siRNA no.": 2, "EdU z-score, cyclin E line, hydroxyurea": 2.79}
{"gene": "NEIL3 (nei like DNA glycosylase 3)", "siRNA no.": 1, "EdU z-score, cyclin E line, hydroxyurea": -1.47}
{"gene": "NEIL3 (nei like DNA glycosylase 3)", "siRNA no.": 2, "EdU z-score, cyclin E line, hydroxyurea": -0.632}
